Measurements as given in patent US20250376511A1.
These are yes or no findings as the source states them, for the method shown. Some binding calls cover weakened binding; strength is not graded here.

Target: His-tagged recombinant human TfR (produced in-house) (human) (UniProt P02786)
Assay: worded summary among the three IgG1-NNAS bispecifics

B1: aC1s_088 × 531v23 IgG1-NNAS/dK (bispecific antibody, V domains shown)
VH 1: QVQLVQSGAEVKKPGASVKLSCTASGFNIKDDYIHWVKEAPGQGLEWIGRIDPADGHTKYAPKFQVKVTITADTSTSTAYLELSSLRSEDTAVYYCARYGYGREVFDYWGQGTTVTVSS
VL 1: DIVLTQSPDSLAVSLGERATISCKASQSVDYDGDSYMNWYQKKPGQPPKILIYDASNLESGIPARFSGSGSGTDFTLTISSLEPEDFAIYYCQQSNEDPWTFGGGTKVEIK
VH 2: QVQLVQSGAEVKKPGASVKVSCKASGYTFTRYYLNWVRKAPGQGLEWIGMIDPSVSETHYAQKFQGRATLTVDKSTSTAYMELSSLRSEDTAVYYCSQIRLPYYYAMDSWGQGTTVTVSS
VL 2: DIQMTQSPSSLSASVGDRVTITCRASQDISSFLNWYQEKPGKAPKLLIYYTSRLHSGVPSRFSGSGSGTDYTLTISSLQPEDFATYYCQQGNTLPRTFGGGTKVEIK
binding: binds
